One compound from EP1124440B1, “USE OF […] FOR FOODSTUFF AND COSMETIC MATERIAL” (Aquacal Limited, priority 1998, dated 2000) can be followed below.

The conditions of the data set: ice-cream.

With `O=C([O-])[O-].[Ca+2]` [Calcium Carbonate], the Grittiness (1 = very gritty, 5 = not gritty) came out at 4.3. For the same compound, the Taste (1 = very poor, 5 = very good) came to 2.8. Where the note is “1 = worst, 5 = best”, this compound yielded an Acceptability of 2.9. Also, under “number of the 19 panellists”, the Preference is 1. For the setting “share of 19 panellists”, the panellists preferred was found to be 5%.
